Measurements reported in paper PMC10163288.
This is one part of the list.

B1: il2ra_site1_2b5i_sap_6_mot_HHH_b2_04910_000000118_0001_1_19_H_._HHH_b1_02251_0001_0000100002_0000001_0_0001_af2pred_dldesign_0_af2pred (protein)
chain: SSSSDPVAEIEKLLEQAKKEKDKKKVSKLLMKAYYLARKLNDPALIAKVKEVWDELEEELSSSSS
B2: il2ra_site2_2erj_normal_mot_HHH_b2_02500_af2_000000175_0001_19_35_H_._HHH_b1_03967_0001_0000300033_0000001_0 (protein)
chain: SSSSSDLLERAYELANILLHLVSRNDEERFEEISREFEEIVERLQSRSAKEVLELLEEELSSSSS
B3: il2ra_site1_1z92_sap_24_mot_HHH_b2_03833_af2_000000174_0001_41_53_H_._HHH_b1_04803_af2_0001_0000200019_0000001_1_0001_af2pred_0001_af2pred (protein)
chain: SEEEELEELLAEVAGVPPEAIERDLKRAEEHLGDPKKALRAVVQAVIALDPRFREELEELLEKVK
B4: il2ra_site1_1z92_normal_mot_HHH_b2_06572_000000077_0001_1_17_H_._HHH_b2_03912_0001_0000200056_0000001_0_af2pred_0001_af2pred (protein)
chain: SSSSEEEQEFALRVVIELAREFKLNAEDLKYLLEVALRLLEEGYSEEEIEEILHEEAEELSSSSS
B5: il2ra_site1_3nfp_sap_26_mot_HHH_b1_02637_af2_000000026_0001_1_18_H_._HHH_b1_02478_af2_0001_0000300029_0000001_0_0001 (protein)
chain: SSSSDEELQEANELAQEIMKATANGDEEEARELLRELEELAEELNTPLLRFLVEQLEENLNSSSS
B6: il2ra_site1_3nfp_sap_26_mot_HHH_b2_01680_af2_000000278_0001_1_15_H_._HHH_b1_00713_0001_0000300023_0000001_0_0001_af2pred_0001_af2pred_1 (protein)
chain: DEEEELRELVRKNPEARRLFAKLIFALAHGDEERLEKLEEEIQELIERTGDPALEAVLLLLELLR
B7: il2ra_site2_2erj_normal_mot_HHH_b1_02757_000000121_0001_41_57_H_._HHH_b2_03218_0001_0000300010_0000001_0_af2pred_0001_1_af2pred_swapped (protein)
chain: SSSSSSDAEEEVRELLEEAEKIEDIKEAMKVLQEASRIASEKDDPEAFKLVTEVFQRLSSSSSSS
B8: il2ra_site2_3nfp_normal_mot_HHH_b1_00015_000000185_0001_19_35_H_._ems_3hM_3301_0001_0000300017_0000001_0 (protein)
chain: SDKEEAHEILSRIALLAFEKNDQEAWLAVAELILLLARAEARNDEELVEEITELAKELLKEVESS
B9: il2ra_site2_2erj_sap_18_mot_HHH_b2_04662_000000013_0001_42_56_H_._HHH_b1_02138_0001_0000200008_0000001_0_0001_af2pred_0001_1_af2pred_swapped (protein)
chain: SSSSDEEELKELVERLAKELGASEEAKELAELSARNAAEAGASEEIIEAFLEALLRMAARRSSSS
B10: il2ra_site1_2b5i_sap_21_mot_HHH_b1_03854_af2_000000092_0001_42_55_H_._HHH_b1_03479_af2_0001_0000200015_0000001_0_0001_af2pred_dldesign_0_af2pred (protein)
chain: SSSSSSDAGEALRLFLEADRLWKAGKEEEAKKLLEEALKLAEKAKNRSLAKAIKYALETLSSSSS
B11: il2ra_site2_3nfp_sap_18_mot_HHH_b1_05437_000000005_0001_40_57_H_._240341e08b947b301b1390bbd516957c_0001_af2_0001_0000200005_0000001_1_0001_af2pred_0001_af2pred (protein)
chain: SSSSSSDDEELKEELEELEERGDEERLRKVVKEALQLAIELGDFQLFALALLARESLLSSSSSSS
B12: il2ra_site1_3nfp_sap_24_mot_HHH_b2_04252_000000281_0001_1_19_H_._HHH_b1_04735_af2_0001_0000200008_0000001_0_0001 (protein)
chain: SSSDHEEISEILWKALRLAWNGNFEEAQKVLEEARELAEERNDERLERRIRYDLRALERFRSSSS
B13: il2ra_site2_3nfp_sap_12_mot_HHH_b2_05540_000000122_0001_22_38_H_._4a0b58da0a66d934d1bcaa80596e03bc_0001_1_af2_0001_0000500020_0000001_0_0001 (protein)
chain: SSSSDVEELLEEIEELIKKGNLEEAEKVLREVAQVAAELGDEEAFARIADLMYELIKLEDSSSSS
B14: il2ra_site2_2erj_normal_mot_c2bf78bdce995293a161f7082e24b401_0001_af2_000000082_0001_17_32_H_._HHH_b1_05222_0001_0000200027_0000001_0 (protein)
chain: SSSSSSLEELYELANEILEALQRGDPEEVEELLREAEELARELDSPNAEEIVKWLEEHLSSSSSS
B15: il2ra_site2_3nfp_normal_mot_HHH_b2_07129_000000128_0001_19_36_H_._HHH_b2_06118_af2_0001_0000300008_0000001_1_af2pred_0001_af2pred_1_swapped (protein)
chain: SSSSDEEERLRELEELLEELKKEGDEEELRKVARELAQLAYKLNDHEAFALAALILEELLSSSSS
B16: il2ra_site1_3nfp_sap_20_mot_HHH_b2_07201_af2_000000232_0001_1_20_H_._HHH_b1_01113_af2_0001_0000400072_0000001_1_0001_af2pred_0001_af2pred_swapped (protein)
chain: SEEFAIERLLEELQRLPDPRVREIVEEVKELLRQGDPEKALELLEELAEELGSPKLKRYLELIEK
B17: il2ra_site1_2b5i_normal_mot_HHH_b1_02271_000000068_0001_1_16_H_._HHH_b1_08580_af2_0001_0000400029_0000001_0_af2pred_dldesign_0_af2pred (protein)
chain: SSSSSSRREFMEKLEELYKEYEKTKNPELKKKIDELIAEARAAGNPRLIRFGDFVRDLLESSSSS
B18: il2ra_site2_2erj_sap_28_mot_64bd02d26d05ce9f1a62b616cea0b888_0001_af2_000000029_0001_36_49_H_._HHH_b2_05867_0001_0000200024_0000001_0_0001_af2pred_0001_1_af2pre … (protein)
chain: SSSSDEEREEAERLLEEAERLLEEGNPEEAEKLLREAFQLAMRGGDEELAHKIARALLLFFSSSS
B19: il2ra_site2_3nfp_sap_19_mot_HHH_b1_03376_000000004_0001_41_55_H_._88162e6262ef81793ed720f4f561f318_0001_0001_0000800035_0000001_0_0001_af2pred_0001_1_af2pred_sw … (protein)
chain: SSDEEQEESEELKELIREALEKNDDEKLRKLIKEAASFALQLNDEELLEFASEARALLAKLRLSS
B20: il2ra_site2_2erj_normal_mot_HHH_b2_06646_af2_000000081_0001_19_36_H_._HHH_b2_01016_0001_0000100001_0000001_0_1_af2pred_0001_af2pred (protein)
chain: SSSSSSSEEEEVERLLEEAKKIPDLREALKALQKADKIAAESNNDELFELVQEVFKELSSSSSSS
B21: il2ra_site1_1z92_sap_13_mot_HHH_b1_01057_000000284_0001_42_56_H_._HHH_b2_02220_0001_0000100004_0000001_0_0001 (protein)
chain: SSSSSAEMSIELALRVIRRLRERGDEEKVRKWLEFVKRQAKILNDEEAERLVEELEEELRSSSSS
B22: il2ra_site2_2erj_normal_mot_HHH_b1_03609_af2_000000077_0001_42_55_H_._HHH_b1_07745_0001_0000100001_0000001_0 (protein)
chain: SSSSSSEEEERIEELLEEAKRTEDPEEVEKLLREASELAFHANNFELWSEVSEVFRKLASSSSSS
B23: il2ra_site2_3nfp_normal_mot_HHH_b1_02297_000000279_0001_41_58_H_._HHH_b1_08162_0001_0000100002_0000001_0_af2pred_0001_af2pred (protein)
chain: SSSSSEEVEELLRQIEELLEEGDEEEVLKLLRRVARLAFRLNNEELFRAVLELAEELAELSSSSS
B24: il2ra_site2_2erj_normal_mot_HHH_b1_03107_000000098_0001_39_52_H_._HHH_b2_03329_0001_0000200010_0000001_0 (protein)
chain: SSSSSSEKEAWEEVAELLARAQHIEDEEEVRELLEEAKRIAEEANNPTLKRYVEFVERDFSSSSS

What follows are binders tested against il2ra, P01589 (assay: yeast display titration).

Apparent Kd, inactive:
B1 no binding seen
B2 no binding seen
B3 no binding seen
B4 no binding seen
B5 no binding seen
B6 no binding seen
B7 no binding seen
B8 no binding seen
B9 no binding seen
B10 no binding seen
B11 no binding seen
B12 no binding seen
B13 no binding seen
B14 no binding seen
B15 no binding seen
B16 no binding seen
B17 no binding seen
B18 no binding seen
B19 no binding seen
B20 no binding seen
B21 no binding seen
B22 no binding seen
B23 no binding seen
B24 no binding seen

No new results follow: an excerpt of the list.
Apparent Kd, inactive:
B23 no binding seen
B24 no binding seen
